No constants are given. Whether binding was seen depends on the method and setting. Binding seen in cells or lysates may run through a third protein. Some binding calls cover weakened binding; strength is not graded here.
Biological target: T1, Polymerase δ-interacting protein 2 (Poldip2) (human (endogenous in A549 and Beas-2B)) (UniProt Q9Y2S7)
T1 sequence: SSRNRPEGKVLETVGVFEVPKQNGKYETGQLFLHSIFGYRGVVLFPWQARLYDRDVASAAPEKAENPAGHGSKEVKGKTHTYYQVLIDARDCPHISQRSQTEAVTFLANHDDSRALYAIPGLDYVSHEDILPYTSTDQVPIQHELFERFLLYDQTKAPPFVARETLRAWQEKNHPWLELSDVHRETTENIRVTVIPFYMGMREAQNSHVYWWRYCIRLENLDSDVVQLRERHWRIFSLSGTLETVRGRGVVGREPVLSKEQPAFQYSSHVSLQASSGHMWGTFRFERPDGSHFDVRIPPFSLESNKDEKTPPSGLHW
Experiment: co-IP; endogenous proteins; A549 (10 μg/mL LPS) and Beas-2B (1 μg/mL LPS) cells treated for 12 h; lysates incubated overnight at 4°C with 3 μg anti-Poldip2 antibody or normal rabbit IgG and protein G Mag Sepharose; immunoblot for Nox4 and Poldip2

- binding: binds
B1: NADPH oxidase 4 (Nox4) (protein, UniProt Q9NPH5 1-578)
chain: MAVSWRSWLANEGVKHLCLFIWLSMNVLLFWKTFLLYNQGPEYHYLHQMLGLGLCLSRASASVLNLNCSLILLPMCRTLLAYLRGSQKVPSRRTRRLLDKSRTFHITCGVTICIFSGVHVAAHLVNALNFSVNYSEDFVELNAARYRDEDPRKLLFTTVPGLTGVCMVVVLFLMITASTYAIRVSNYDIFWYTHNLFFVFYMLLTLHVSGGLLKYQTNLDTHPPGCISLNRTSSQNISLPEYFSEHFHEPFPEGFSKPAEFTQHKFVKICMEEPRFQANFPQTWLWISGPLCLYCAERLYRYIRSNKPVTIISVMSHPSDVMEIRMVKENFKARPGQYITLHCPSVSALENHPFTLTMCPTETKATFGVHLKIVGDWTERFRDLLLPPSSQDSEILPFIQSRNYPKLYIDGPFGSPFEESLNYEVSLCVAGGIGVTPFASILNTLLDDWKPYKLRRLYFIWVCRDIQSFRWFADLLCMLHNKFWQENRPDYVNIQLYLSQTDGIQKIIGEKYHALNSRLFIGRPRWKLLFDEIAKYNRGKTVGVFCCGPNSLSKTLHKLSNQNNSYGTRFEYNKESFS
